# According to PubChem BioAssay (EPA / NIEHS):
# Protein sequences, listed by entry. Tags and fused reporters are not part of them. Lines headed by an entry give the natural chain unless they say otherwise; changes in a name come on top.
# UniProt P37231: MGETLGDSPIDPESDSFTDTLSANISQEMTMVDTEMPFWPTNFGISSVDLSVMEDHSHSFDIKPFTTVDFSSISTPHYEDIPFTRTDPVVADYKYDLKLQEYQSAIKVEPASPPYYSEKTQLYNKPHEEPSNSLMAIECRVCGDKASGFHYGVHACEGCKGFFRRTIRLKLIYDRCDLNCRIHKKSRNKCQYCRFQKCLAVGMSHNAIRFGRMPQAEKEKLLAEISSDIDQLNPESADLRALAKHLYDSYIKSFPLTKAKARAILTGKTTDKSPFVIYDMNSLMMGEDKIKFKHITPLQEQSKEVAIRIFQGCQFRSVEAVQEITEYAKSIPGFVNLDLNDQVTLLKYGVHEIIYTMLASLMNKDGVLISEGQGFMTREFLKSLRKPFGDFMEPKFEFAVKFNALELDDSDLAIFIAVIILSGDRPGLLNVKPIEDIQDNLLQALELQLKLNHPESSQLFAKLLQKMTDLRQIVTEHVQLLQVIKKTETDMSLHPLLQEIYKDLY
# UniProt P20813: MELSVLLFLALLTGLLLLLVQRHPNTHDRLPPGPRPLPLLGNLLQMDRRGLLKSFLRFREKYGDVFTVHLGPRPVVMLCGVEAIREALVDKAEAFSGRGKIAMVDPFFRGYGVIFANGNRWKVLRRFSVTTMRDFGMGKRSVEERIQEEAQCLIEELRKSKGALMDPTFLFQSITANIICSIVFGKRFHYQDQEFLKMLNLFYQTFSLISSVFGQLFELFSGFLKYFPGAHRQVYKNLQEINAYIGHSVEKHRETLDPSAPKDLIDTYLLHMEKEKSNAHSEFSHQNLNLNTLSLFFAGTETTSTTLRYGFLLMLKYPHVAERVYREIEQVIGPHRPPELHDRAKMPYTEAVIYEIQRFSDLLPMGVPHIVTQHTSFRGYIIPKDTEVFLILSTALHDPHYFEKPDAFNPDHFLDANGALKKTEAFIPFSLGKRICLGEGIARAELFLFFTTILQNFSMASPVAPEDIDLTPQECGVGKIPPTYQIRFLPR
# UniProt P10275: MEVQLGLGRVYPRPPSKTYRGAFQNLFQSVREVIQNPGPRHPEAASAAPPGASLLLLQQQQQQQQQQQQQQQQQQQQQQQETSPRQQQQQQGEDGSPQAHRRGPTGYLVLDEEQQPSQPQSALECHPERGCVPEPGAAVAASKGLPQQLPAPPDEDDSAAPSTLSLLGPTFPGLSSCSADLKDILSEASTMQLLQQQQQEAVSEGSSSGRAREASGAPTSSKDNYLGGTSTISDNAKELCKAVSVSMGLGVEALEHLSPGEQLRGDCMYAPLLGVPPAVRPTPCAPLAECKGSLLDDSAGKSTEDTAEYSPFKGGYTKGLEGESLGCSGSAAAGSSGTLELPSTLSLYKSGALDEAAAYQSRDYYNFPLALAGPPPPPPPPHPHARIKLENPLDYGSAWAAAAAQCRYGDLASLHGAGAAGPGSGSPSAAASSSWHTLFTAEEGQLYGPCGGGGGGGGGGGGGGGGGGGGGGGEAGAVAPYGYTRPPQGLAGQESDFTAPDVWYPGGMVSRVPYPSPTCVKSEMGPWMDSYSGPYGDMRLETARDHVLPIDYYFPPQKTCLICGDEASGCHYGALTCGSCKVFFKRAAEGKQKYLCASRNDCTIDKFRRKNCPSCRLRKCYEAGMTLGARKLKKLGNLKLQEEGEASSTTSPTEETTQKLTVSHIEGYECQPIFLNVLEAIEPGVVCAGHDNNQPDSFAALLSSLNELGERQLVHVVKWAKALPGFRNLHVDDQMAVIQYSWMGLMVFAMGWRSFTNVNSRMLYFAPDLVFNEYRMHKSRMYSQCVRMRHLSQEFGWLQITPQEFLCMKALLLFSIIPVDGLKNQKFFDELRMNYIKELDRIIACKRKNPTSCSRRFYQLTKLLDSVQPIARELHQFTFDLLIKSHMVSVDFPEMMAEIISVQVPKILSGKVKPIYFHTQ
# UniProt Q07869: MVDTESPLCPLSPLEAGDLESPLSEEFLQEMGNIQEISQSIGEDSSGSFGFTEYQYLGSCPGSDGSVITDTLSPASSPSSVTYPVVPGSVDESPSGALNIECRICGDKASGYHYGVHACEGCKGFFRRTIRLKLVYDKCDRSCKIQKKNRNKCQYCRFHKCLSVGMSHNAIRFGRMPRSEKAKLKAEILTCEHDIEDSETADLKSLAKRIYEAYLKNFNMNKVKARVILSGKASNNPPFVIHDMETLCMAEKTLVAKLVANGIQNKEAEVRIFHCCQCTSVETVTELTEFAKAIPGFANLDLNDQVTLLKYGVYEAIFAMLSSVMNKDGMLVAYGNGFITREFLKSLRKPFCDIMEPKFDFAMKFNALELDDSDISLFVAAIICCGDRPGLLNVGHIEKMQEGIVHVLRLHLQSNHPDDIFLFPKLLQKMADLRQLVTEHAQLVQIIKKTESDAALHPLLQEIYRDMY
# UniProt Q9UNQ0: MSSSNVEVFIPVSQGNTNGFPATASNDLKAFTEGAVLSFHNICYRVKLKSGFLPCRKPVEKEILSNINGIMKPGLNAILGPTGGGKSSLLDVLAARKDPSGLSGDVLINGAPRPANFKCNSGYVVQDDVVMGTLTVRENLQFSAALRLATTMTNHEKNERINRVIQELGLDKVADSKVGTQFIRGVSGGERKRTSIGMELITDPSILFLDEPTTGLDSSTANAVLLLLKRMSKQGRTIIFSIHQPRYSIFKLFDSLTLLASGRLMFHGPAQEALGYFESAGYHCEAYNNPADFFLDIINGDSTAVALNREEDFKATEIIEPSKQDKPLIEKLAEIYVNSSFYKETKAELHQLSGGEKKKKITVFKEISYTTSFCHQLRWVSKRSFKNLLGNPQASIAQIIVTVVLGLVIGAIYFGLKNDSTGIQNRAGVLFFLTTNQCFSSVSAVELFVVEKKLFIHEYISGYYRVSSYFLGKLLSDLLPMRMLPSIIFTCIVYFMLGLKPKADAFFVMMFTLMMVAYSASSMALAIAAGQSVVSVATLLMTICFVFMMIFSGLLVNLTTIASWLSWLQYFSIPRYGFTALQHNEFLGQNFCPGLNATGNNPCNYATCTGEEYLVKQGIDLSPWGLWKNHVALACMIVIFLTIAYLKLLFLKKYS
# UniProt Q92731, whole entry, looked up: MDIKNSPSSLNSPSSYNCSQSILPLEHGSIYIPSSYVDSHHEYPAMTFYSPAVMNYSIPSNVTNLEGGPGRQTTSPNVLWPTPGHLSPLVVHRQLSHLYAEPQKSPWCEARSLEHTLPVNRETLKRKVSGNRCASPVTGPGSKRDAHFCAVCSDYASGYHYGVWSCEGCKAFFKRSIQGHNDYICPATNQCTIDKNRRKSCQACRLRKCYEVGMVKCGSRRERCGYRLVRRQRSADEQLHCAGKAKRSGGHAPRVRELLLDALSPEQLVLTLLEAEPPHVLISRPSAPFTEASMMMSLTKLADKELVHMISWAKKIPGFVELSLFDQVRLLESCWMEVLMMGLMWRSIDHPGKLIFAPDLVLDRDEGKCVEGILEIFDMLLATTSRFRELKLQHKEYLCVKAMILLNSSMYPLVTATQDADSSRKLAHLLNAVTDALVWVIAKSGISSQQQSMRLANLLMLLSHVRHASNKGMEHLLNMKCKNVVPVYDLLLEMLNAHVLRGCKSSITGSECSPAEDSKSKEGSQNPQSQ
# UniProt P05979, whole entry, looked up: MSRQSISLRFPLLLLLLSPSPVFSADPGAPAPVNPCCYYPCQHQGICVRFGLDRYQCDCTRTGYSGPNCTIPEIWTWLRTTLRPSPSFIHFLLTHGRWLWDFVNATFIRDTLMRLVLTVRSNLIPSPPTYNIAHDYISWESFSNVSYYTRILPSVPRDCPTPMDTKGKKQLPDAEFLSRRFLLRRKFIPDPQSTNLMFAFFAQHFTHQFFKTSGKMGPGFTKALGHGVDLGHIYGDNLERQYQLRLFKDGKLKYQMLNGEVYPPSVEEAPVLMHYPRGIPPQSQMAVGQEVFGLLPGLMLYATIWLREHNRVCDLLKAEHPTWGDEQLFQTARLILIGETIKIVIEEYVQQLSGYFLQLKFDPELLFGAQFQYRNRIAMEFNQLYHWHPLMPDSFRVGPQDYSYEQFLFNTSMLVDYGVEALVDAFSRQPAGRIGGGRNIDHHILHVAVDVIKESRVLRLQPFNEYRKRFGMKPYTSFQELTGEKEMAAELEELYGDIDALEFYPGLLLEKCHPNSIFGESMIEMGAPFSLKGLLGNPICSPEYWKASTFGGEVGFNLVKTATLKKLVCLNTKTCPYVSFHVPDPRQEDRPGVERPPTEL
# This list was built around the results that the source calls inconclusive (neither active nor inactive); the mix of calls is not that of the screen. For some of these results: A potency beside an inconclusive call is a rough fit, not a confirmed value. Activity calls are given as the source filed them. How the source made its calls: active means hit-call score of the fitted dose curve at least 0.9, where 1 is the maximum; inconclusive means response in the unintended direction; inactive means score below 0.9.
# How the values were obtained:
# [1] = target: Peroxisome proliferator-activated receptor gamma (Homo sapiens) (UniProt P37231); assay: NVS_NR_hPPARg: NovaScreen (NVS) Nuclear Receptor Binding Assay for human Peroxisome Proliferator-activated Receptor gamma (PPARg) (AID 2283370)
# How it was run: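 Cell-free binding to extracted PPARg protein, read by fluorescence polarization 2 h after dosing; loss of signal relative to DMSO baseline marks displacement. Primary screen in duplicate at 25 uM, actives retested in concentration series.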
# [2] = Tanguay_ZF_120hpf_BRAI_legacy: (Legacy) Oregon State University Tanguay Lab 120 Hour Post-fertilization zebrafish Assay for Brain Malformation (AID 2283641)
# How it was run: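 Tropical 5D wild-type zebrafish embryos were exposed statically in sealed, foil-covered plates at 28C until 120 hpf, with 0.64% (vol/vol) final DMSO. Brain malformation was scored present/absent by brightfield microscopy, relative to DMSO baseline.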
# [3] = read-out: xenobiotic metabolism (CYP1A1), CYP1A1 (gene 1543); assay: CLD_CYP1A1_24hr: CellzDirect (CLD) Gene Expression Assay for xenobiotic metabolism (CYP1A1) at 24 hours (AID 2283673);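 further: CYP1A1 mRNA level by quantitative nuclease protection with chemiluminescence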
# How it was run: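 Transcript levels were read at 24 h by qNPA chemiluminescence in human liver primary cells. Cells got daily fresh dosing at multiple concentrations (vehicle 0.2% DMSO). Induction fitted upward against DMSO; phase-contrast cytotoxicity annotated.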
# [4] = read-out: Cytochrome P450 2B6 (Homo sapiens) (UniProt P20813); assay: CLD_CYP2B6_48hr: CellzDirect (CLD) Gene Expression Assay for xenobiotic metabolism (CYP2B6) at 48 hours (AID 2283699);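 further: actives raise transcript level above DMSO so potency reflects induction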
# How it was run: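 CYP2B6 transcript induction, read by quantitative nuclease protection (S1 digestion, chemiluminescent detection) 48 h after dosing, is fitted upward against 0.2% DMSO. Cultured human liver primary cells, two donor preparations, received fresh chemical daily over multiple concentrations.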
# [5] = CLD_ACTIN_48hr: CellzDirect (CLD) Gene Expression Assay for Baseline Control (Actin) at 48 hours (AID 2283702)
# How it was run: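 Background-control actin mRNA read by qNPA chemiluminescence at 48 h. Human hepatocyte cultures from two donors received fresh multi-concentration chemical doses daily for two days; 0.2% DMSO served as vehicle baseline.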
# AR (gene 367) = AR (gene 367) (UniProt P10275); assay: ACEA_AR_agonist_80hr: ACEA Biosciences xCELLigence Real-Time Cell Analysis on Androgen Receptor Agonism for Proliferation (AID 2283783);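 further: hits increase impedance growth signal above DMSO baseline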
# How it was run: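 Real-time cell-growth kinetics were recorded by electrode impedance in 22Rv1 cells exposed to test chemicals up to 100 uM final; the 80 h timepoint served as the readout, fitted upward relative to DMSO controls, in biological duplicate.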
# NCBI gene 100848466 = assay: NVS_NR_bPR: NovaScreen (NVS) Nuclear Receptor Binding Assay for bovine Progextron Receptor (PR) (AID 2283343)
# How it was run: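 Steps: bovine uterine membranes were dosed with chemical alongside radioligand, incubated 18 hours, then radiodetected by scintillation counting. Initial testing used 25 uM in duplicate; confirmed actives were rerun as concentration series.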
# [6] = Tanguay_ZF_120hpf_TR_legacy: (Legacy) Oregon State University Tanguay Lab 120 Hour Post-fertilization zebrafish Assay for Touch Response (AID 2283667)
# How it was run: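 Readout is presence or absence of touch response in 120 hpf zebrafish larvae, assessed by brightfield observation after continuous static exposure at 28C. Final vehicle was 0.64% (vol/vol) DMSO.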
# [7] = CCTE_Shafer_MEA_acute_LDH: CCTE's Lactate Dehydrogenase Assay for Cytotoxicity in the Neural Acute Assay, Shafer Lab (AID 2284086);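 further: active means LDH release rises above DMSO vehicle level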
# How it was run: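 Cytotoxicity readout: spectrophotometric LDH activity in supernatant of rat primary cortical neurons, post-plating day 13 or 15, sampled after 40 min compound exposure; signal gain relative to DMSO baseline.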
# [8] = target: human Peroxisome Proliferator-activated Receptor alpha (PPARa), PPARA (gene 5465) (UniProt Q07869); assay: NVS_NR_hPPARa: NovaScreen (NVS) Nuclear Receptor Binding Assay for human Peroxisome Proliferator-activated Receptor alpha (PPARa) (AID 2283359);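 further: activity means loss of TR-FRET signal versus DMSO baseline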
# How it was run: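 One-hour incubation, cell-free extracted protein, TR-FRET binding readout; signal loss vs DMSO scored. Screen: 25 uM duplicates, confirmatory dose series for actives.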
# [9] = read-out: Broad substrate specificity ATP-binding cassette transporter ABCG2 (Homo sapiens) (UniProt Q9UNQ0); assay: CLD_ABCG2_6hr: CellzDirect (CLD) Gene Expression Assay for ABC Transporter (ABCG2) at 6 hours (AID 2283660)
# How it was run: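 ABCG2 mRNA induction measured by qNPA chemiluminescence in human primary hepatocyte cultures, 6 h post-dose. Chemicals tested at several concentrations against a 0.2% DMSO vehicle; positive-direction fit relative to DMSO.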
# [10] = read-out: ABC Transporter (ABCB1), ABCB1 (gene 5243); assay: CLD_ABCB1_48hr: CellzDirect (CLD) Gene Expression Assay for ABC Transporter (ABCB1) at 48 hours (AID 2283695);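 on AC50: potency for induction meaning increase of mRNA over DMSO vehicle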
# How it was run: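 ABCB1 mRNA was measured by quantitative nuclease protection assay (chemiluminescence) 48 h after dosing. Human hepatocyte cultures from two separate donors received fresh dosing solutions daily for two days, with 0.2% DMSO as vehicle. Positive-direction fit against DMSO.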
# [11] = system: turtle Androgen Receptor (AR), gene 101947425; assay: ATG_trAR_XSP2: Attagene TRANS-FACTORIAL Multi-Species (XSP2) HepG2 Assay for turtle Androgen Receptor (AR) (AID 2283815);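 further: reporter mRNA from a Gal4 chimera of turtle AR measured by RT-PCR; potency for gain of reporter signal meaning activation above DMSO baseline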
# How it was run: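 Reporter transcripts were quantified via RT-PCR and capillary electrophoresis and fitted upward against DMSO. Transiently transfected human HepG2 cells carrying NR-Gal4 chimeras were exposed 24 h, with 3 nM 6-alpha-fluorotestosterone plus 1.5 nM norgestrel added.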
# [12] = system: chicken Androgen Receptor (AR), gene 422165; assay: ATG_chAR_XSP2: Attagene TRANS-FACTORIAL Multi-Species (XSP2) HepG2 Assay for chicken Androgen Receptor (AR) (AID 2283819);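 further: hits raise reporter mRNA above DMSO so potency is for activation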
# How it was run: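 Readout is reporter mRNA induction via RT-PCR/capillary electrophoresis after 24 h chemical exposure, positive direction relative to DMSO. Transiently transfected HepG2 express chimeric chicken AR–GAL4; AR stimulated by 3 nM 6-alpha-fluorotestosterone and 1.5 nM norgestrel.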
# [13] = ATG_M_19_XSP2: Attagene TRANS-FACTORIAL Multi-Species (XSP2) HepG2 Assay for M32 Transcription Factor (Internal Marker) (AID 2283822)
# How it was run: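 Internal background marker in a multi-species nuclear receptor TRANS panel: transfected HepG2 cells exposed 24 h, with 3 nM 6-alpha-fluorotestosterone and 1.5 nM norgestrel present. Readout is RT-PCR of reporter transcripts resolved by capillary electrophoresis, gain-of-signal versus DMSO.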
# [14] = read-out: xenobiotic metabolism (CYP1A1), CYP1A1 (gene 1543); assay: CLD_CYP1A1_48hr: CellzDirect (CLD) Gene Expression Assay for xenobiotic metabolism (CYP1A1) at 48 hours (AID 2283705)
# How it was run: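 CYP1A1 transcript measured by quantitative nuclease protection (chemiluminescent) 48 h after two daily treatments of human hepatocyte cultures, versus 0.2% DMSO. Morphology-based cytotoxicity flags accompany data; two donor preparations used.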
# [15] = Tanguay_ZF_120hpf_SOMI_legacy: (Legacy) Oregon State University Tanguay Lab 120 Hour Post-fertilization zebrafish Assay for Somite Malformation (AID 2283647)
# How it was run: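 Tropical 5D wild-type zebrafish embryos, dechorionated with pronase at 4 hpf, were placed singly at 6 hpf and statically exposed until 120 hpf at 28C in 0.64% DMSO. Somite malformation was scored present/absent by brightfield microscopy versus DMSO.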
# [16] = target: Estrogen receptor beta (Homo sapiens) (UniProt Q92731); assay: OT_ER_ERbERb_0480: Odyssey Thera (OT) 8-hour HEK293T Protein-Complementation Assay for Estrogen Receptor-beta/-beta Homodimer (AID 2283357);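 further: active means signal gain over DMSO baseline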
# How it was run: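 Fluorescence gain from complemented reporter fragments on ER-beta LBD homodimer in HEK293T was quantified against DMSO controls after 8 h treatment, fixation in 4% formaldehyde and Draq5 staining.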
# [17] = CCTE_Shafer_MEA_acute_AB: CCTE's Alamar Blue Assay for Cytotoxicity in the Neural Acute Assay, Shafer Lab (AID 2284069);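 further: active compounds lower the viability signal compared with DMSO wells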
# How it was run: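 Metabolic activity in chemically exposed rat cortical neurons (MEA cultures, day 13/15 post-plating) measured via CellTiter Blue resazurin reduction, 544/590 nm fluorescence; fitted relative to DMSO, with signal loss indicating reduced viability.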
# [18] = target: sheep Cyclooxygenase-1 (Cox1), PTGS1 (gene 443551) (UniProt P05979); assay: NVS_ENZ_oCOX1: NovaScreen (NVS) Enzymatic Assay for sheep Cyclooxygenase-1 (Cox1) (AID 2283239);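 further: actives reduce cyclooxygenase activity so potencies are for inhibitors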
# How it was run: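 Cell-free colorimetric assay of enzyme activity in a native extract of ovine seminal vesicles. Absorbance was read 0.66 hour after compound addition. Loss of signal relative to the DMSO negative control was scored, with actives from the 25 uM duplicate primary screen retested in concentration series.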
smiles,measurement,setting,value
COCc1cnc(C2=NC(C)(C(C)C)C(=O)N2)c(C(=O)O)c1 (stereo unspecified),AC50,[1],inconclusive: 0.00238 µM
same,outcome,[2],inactive
same,AC50,[3],inconclusive: 20 µM
same,outcome,[4],inactive
same,AC50,[5],inconclusive: 20 µM
same,outcome,AR (gene 367),inactive
O=C(O)C(F)(F)C(F)(F)C(F)(F)C(F)(F)C(F)(F)C(F)(F)C(F)(F)C(F)(F)F,outcome,NCBI gene 100848466,inactive
C=CC(N)=O,AC50,[6],inconclusive: 36.6 µM
same,outcome,[7],inactive
O=C(O)C(Cl)Cl,outcome,[8],inactive
CCOP(=S)(OCC)SCn1c(=O)oc2cc(Cl)ccc21,AC50,[9],inconclusive: 20 µM
same,AC50,[10],inconclusive: 7.59 µM
same,AC50,[5],inconclusive: 8.14 µM
same,AC50,[11],inconclusive: 100 µM
same,outcome,[12],inactive
same,AC50,[13],inconclusive: 19.8 µM
N#CN,AC50,[3],inconclusive: 3.75 µM
same,AC50,[4],inconclusive: 0.0077 µM
CCOP(=O)(OCC)Oc1cc(C)nc(C(C)C)n1,outcome,[1],inactive
same,outcome,[9],inactive
same,AC50,[10],inconclusive: 0.00139 µM
same,outcome,[14],inactive
CCS(=O)(=O)c1cccnc1S(=O)(=O)NC(=O)Nc1nc(OC)cc(OC)n1,outcome,[10],inactive
CCCCOCN(C(=O)CCl)c1c(CC)cccc1CC,outcome,[15],inactive
same,outcome,[9],inactive
same,AC50,AR (gene 367),active: 10.5 µM
Cc1nn(-c2cc(NS(C)(=O)=O)c(Cl)cc2Cl)c(=O)n1C(F)F,AC50,[16],inconclusive: 50 µM
same,outcome,[9],inactive
same,outcome,[14],inactive
same,outcome,AR (gene 367),inactive
CS/C(C)=N/OC(=O)N(C)SN(C)C(=O)O/N=C(\C)SC,AC50,[15],inconclusive: 41 µM
same,outcome,[3],inactive
same,AC50,[4],inconclusive: 0.0013 µM
same,outcome,AR (gene 367),inactive
same,outcome,[17],inactive
O=C(O)COc1cc(Cl)c(Cl)cc1Cl,outcome,[18],inactive
same,AC50,[16],inconclusive: 50 µM
same,AC50,[1],active: 7.47 µM
COC(=O)N(OC)c1ccccc1COc1ccn(-c2ccc(Cl)cc2)n1,AC50,[14],active: 1.9 µM
same,AC50,[11],inconclusive: 10 µM
same,AC50,[12],inconclusive: 10 µM
same,AC50,[13],inconclusive: 10 µM
Cc1cc(C)nc(NC(=O)NS(=O)(=O)c2ccccc2C(=O)OC2COC2)n1,AC50,[9],inconclusive: 20 µM
same,outcome,[10],inactive
same,outcome,[4],inactive
same,AC50,[14],inconclusive: 20 µM

# Some of the entries so far, bar-delimited.
smiles | measurement | setting | value
Cc1nn(-c2cc(NS(C)(=O)=O)c(Cl)cc2Cl)c(=O)n1C(F)F | outcome | [14] | inactive
same | outcome | AR (gene 367) | inactive
